No constants are given. Whether binding was seen depends on the method and setting. A result given as binding can be weak or reduced; the word gives no strength. For part of these data: Sequences can lack the tags named with a protein. For part of these data: In cells and extracts the contact can be indirect. One block for each molecule: values may come before it.
Experiments:
[1] = target: T1, OTUD5, endogenous in neonatal rat cardiomyocytes (rat (endogenous in NRCMs)) (UniProt Q2YDU3); test: co-IP; lysates of NRCMs with or without 4-HNE (40 µM, 6 h); IP with GPX4- or OTUD5-specific antibody or control IgG, probed for GPX4/OTUD5 (reciprocal)
T1 sequence: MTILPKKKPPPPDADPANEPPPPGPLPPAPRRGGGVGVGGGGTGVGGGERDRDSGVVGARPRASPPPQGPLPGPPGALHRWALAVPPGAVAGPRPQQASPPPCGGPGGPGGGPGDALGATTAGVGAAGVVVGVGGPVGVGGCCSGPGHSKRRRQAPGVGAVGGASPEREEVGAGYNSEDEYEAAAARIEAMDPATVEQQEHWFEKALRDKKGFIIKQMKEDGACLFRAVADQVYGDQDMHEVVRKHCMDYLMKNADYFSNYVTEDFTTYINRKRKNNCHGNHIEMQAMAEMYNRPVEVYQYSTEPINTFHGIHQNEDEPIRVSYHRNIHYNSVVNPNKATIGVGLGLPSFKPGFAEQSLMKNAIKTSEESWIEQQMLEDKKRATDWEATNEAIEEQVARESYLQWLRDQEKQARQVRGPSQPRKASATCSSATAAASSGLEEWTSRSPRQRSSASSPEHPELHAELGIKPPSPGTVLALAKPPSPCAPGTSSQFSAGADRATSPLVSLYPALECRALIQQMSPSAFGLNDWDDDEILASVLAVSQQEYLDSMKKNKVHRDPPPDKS

[2] = target: GPX4, endogenous in neonatal rat cardiomyocytes (rat (endogenous in NRCMs)); test: as above
[3] = target: GPX4, endogenous in neonatal rat cardiomyocytes (rat (endogenous in NRCMs)); test: proximity ligation; Duolink PLA between GPX4 and OTUD5 in fixed NRCMs, with or without 4-HNE (40 µM, 6 h)
[4] = target: GPX4, endogenous in mouse heart (mouse (endogenous in heart)); test: co-IP; co-immunoprecipitation from hearts in the MI/R model, ALDH2 cKO mice (Figure S8E,F)
[5] = target: GPX4 mutant C93A (carbonylation-defective); test: co-IP; lysates of HEK293T cells transfected with GPX4 and Flag-OTUD5 plasmids (wild type or mutants), with or without 4-HNE (40 µM, 6 h); Protein A/G magnetic beads
[6] = target: GST-GPX4 fusion protein; test: pull-down; GST-GPX4 on GST beads at 4 °C overnight, purified His-OTUD5 added and incubated at 4 °C overnight, with or without 4-HNE (100 µM, 1 h, room temperature); western blotting; both purified

binding [1]: binds
Molecule: GPX4, endogenous in neonatal rat cardiomyocytes

binding [2]: binds
binding [3]: binds
B1: OTUD5, endogenous in neonatal rat cardiomyocytes (protein, UniProt Q2YDU3 1-566)
chain: MTILPKKKPPPPDADPANEPPPPGPLPPAPRRGGGVGVGGGGTGVGGGERDRDSGVVGARPRASPPPQGPLPGPPGALHRWALAVPPGAVAGPRPQQASPPPCGGPGGPGGGPGDALGATTAGVGAAGVVVGVGGPVGVGGCCSGPGHSKRRRQAPGVGAVGGASPEREEVGAGYNSEDEYEAAAARIEAMDPATVEQQEHWFEKALRDKKGFIIKQMKEDGACLFRAVADQVYGDQDMHEVVRKHCMDYLMKNADYFSNYVTEDFTTYINRKRKNNCHGNHIEMQAMAEMYNRPVEVYQYSTEPINTFHGIHQNEDEPIRVSYHRNIHYNSVVNPNKATIGVGLGLPSFKPGFAEQSLMKNAIKTSEESWIEQQMLEDKKRATDWEATNEAIEEQVARESYLQWLRDQEKQARQVRGPSQPRKASATCSSATAAASSGLEEWTSRSPRQRSSASSPEHPELHAELGIKPPSPGTVLALAKPPSPCAPGTSSQFSAGADRATSPLVSLYPALECRALIQQMSPSAFGLNDWDDDEILASVLAVSQQEYLDSMKKNKVHRDPPPDKS

binding [4]: binds
B2: OTUD5, endogenous in mouse heart (protein, UniProt Q3U2S4 1-566)
chain: MTILPKKKPPPPDADPANEPPPPGPLPPAPRRGAGVGVGGGGTGVGGGERDRDSGVVGARPRASPPPQGPLPGPPGALHRWALAVPPGAVAGPRPQQASPPPCGGPGGPGGGPGDALGATTAGVGAAGVVVGVGGTVGVGGCCSGPGHSKRRRQAPGVGAVGGASPEREEVGAGYNSEDEYEAAAARIEAMDPATVEQQEHWFEKALRDKKGFIIKQMKEDGACLFRAVADQVYGDQDMHEVVRKHCMDYLMKNADYFSNYVTEDFTTYINRKRKNNCHGNHIEMQAMAEMYNRPVEVYQYSTEPINTFHGIHQNEDEPIRVSYHRNIHYNSVVNPNKATIGVGLGLPSFKPGFAEQSLMKNAIKTSEESWIEQQMLEDKKRATDWEATNEAIEEQVARESYLQWLRDQEKQARQVRGPSQPRKASATCSSATAAASSGLEEWTSRSPRQRSSASSPEHPELHAELGIKPPSPGTVLALAKPPSPCAPGTSSQFSAGGDRATSPLVSLYPALECRALIQQMSPSAFGLNDWDDDEILASVLAVSQQEYLDSMKKNKVHREPPPDKS

binding [5]: binds
B3: Flag-OTUD5 mutant C247A (carbonylation-defective) (protein, UniProt Q96G74 1-571)
chain: MTILPKKKPPPPDADPANEPPPPGPMPPAPRRGGGVGVGGGGTGVGGGDRDRDSGVVGARPRASPPPQGPLPGPPGALHRWALAVPPGAVAGPRPQQASPPPCGGPGGPGGGPGDALGAAAAGVGAAGVVVGVGGAVGVGGCCSGPGHSKRRRQAPGVGAVGGGSPEREEVGAGYNSEDEYEAAAARIEAMDPATVEQQEHWFEKALRDKKGFIIKQMKEDGACLFRAVADQVYGDQDMHEVVRKHAMDYLMKNADYFSNYVTEDFTTYINRKRKNNCHGNHIEMQAMAEMYNRPVEVYQYSTGTSAVEPINTFHGIHQNEDEPIRVSYHRNIHYNSVVNPNKATIGVGLGLPSFKPGFAEQSLMKNAIKTSEESWIEQQMLEDKKRATDWEATNEAIEEQVARESYLQWLRDQEKQARQVRGPSQPRKASATCSSATAAASSGLEEWTSRSPRQRSSASSPEHPELHAELGMKPPSPGTVLALAKPPSPCAPGTSSQFSAGADRATSPLVSLYPALECRALIQQMSPSAFGLNDWDDDEILASVLAVSQQEYLDSMKKNKVHRDPPPDKS

binding [6]: binds
B4: His-OTUD5 (natural protein)
chain: MTILPKKKPPPPDADPANEPPPPGPMPPAPRRGGGVGVGGGGTGVGGGDRDRDSGVVGARPRASPPPQGPLPGPPGALHRWALAVPPGAVAGPRPQQASPPPCGGPGGPGGGPGDALGAAAAGVGAAGVVVGVGGAVGVGGCCSGPGHSKRRRQAPGVGAVGGGSPEREEVGAGYNSEDEYEAAAARIEAMDPATVEQQEHWFEKALRDKKGFIIKQMKEDGACLFRAVADQVYGDQDMHEVVRKHCMDYLMKNADYFSNYVTEDFTTYINRKRKNNCHGNHIEMQAMAEMYNRPVEVYQYSTGTSAVEPINTFHGIHQNEDEPIRVSYHRNIHYNSVVNPNKATIGVGLGLPSFKPGFAEQSLMKNAIKTSEESWIEQQMLEDKKRATDWEATNEAIEEQVARESYLQWLRDQEKQARQVRGPSQPRKASATCSSATAAASSGLEEWTSRSPRQRSSASSPEHPELHAELGMKPPSPGTVLALAKPPSPCAPGTSSQFSAGADRATSPLVSLYPALECRALIQQMSPSAFGLNDWDDDEILASVLAVSQQEYLDSMKKNKVHRDPPPDKS
modifications: Red-tris-NTA dye on the His tag (MST only)

Source: paper PMC10558642 (2023)
